Reference: publication PMC12447755 (Chemical Science, 2025)
HELM strings list residues between dots; [ac] is acetyl, [am] amide, other brackets name non-standard units.

Assay: general procedure: Fmoc solid-phase peptide synthesis; Rink Amide MBHA low-loading resin (100–200 mesh, loading 0.3–0.4 mmol/g)
Settings: for final HPLC purity / isolated mass / final LC-MS purity: TFA salt; for isolated yield: calculated as TFA salt; for final HPLC purity / final LC-MS purity: HPLC
[1] = whole synthesis, scale of the general procedure 0.1 mmol or 0.25 mmol
[2] = whole synthesis, scale 0.25 mmol
[3] = whole synthesis, scale 0.1 mmol

Substance	final HPLC purity (cyclisation step)	final HPLC purity [1]	other results
PEPTIDE1{[ac].W.C.L.K.K.F.R.G.C.F.[am]}|CHEM1{[staple1]}$PEPTIDE1,CHEM1,3:R3-1:R1|PEPTIDE1,CHEM1,10:R3-1:R2$$$V2.0	98%	–	–
Ac-WCLKKFRGCF-NH2 (cysteine pairing not given here)	–	85%	isolated yield [2]: 15%; isolated mass [2]: 51 mg
C8–GCLKFIKKCL–NH2	–	95%	isolated yield [2]: 9%; isolated mass [2]: 29 mg
PEPTIDE1{C.F.A.K.W.A.F.C.W.L.K.K.[am]}|CHEM1{[staple8]}$PEPTIDE1,CHEM1,1:R3-1:R1|PEPTIDE1,CHEM1,8:R3-1:R2$$$V2.0	98%	–	–
PEPTIDE1{R.F.R.R.L.R.K.K.W.R.K.R.L.K.K.I.[am]}$$$$V2.0	–	90%	isolated yield [3]: 16%; isolated mass [3]: 37 mg
PEPTIDE1{N.L.F.R.K.L.C.H.R.L.F.R.R.C.F.G.Y.T.L.R.[am]}|CHEM1{[staple1]}$PEPTIDE1,CHEM1,7:R3-1:R1|PEPTIDE1,CHEM1,14:R3-1:R2$$$V2.0	99%	–	–
PEPTIDE1{C.A.K.W.A.F.K.C.L.K.K.[am]}|CHEM1{[staple8]}$PEPTIDE1,CHEM1,1:R3-1:R1|PEPTIDE1,CHEM1,8:R3-1:R2$$$V2.0	98%	–	–
PEPTIDE1{F.C.K.W.A.F.K.W.C.K.K.[am]}$$$$V2.0	–	92%	isolated yield [2]: 25%; isolated mass [2]: 129.5 mg
PEPTIDE1{F.A.K.W.C.F.K.W.L.K.K.C.[am]}|CHEM1{[staple8]}$PEPTIDE1,CHEM1,5:R3-1:R1|PEPTIDE1,CHEM1,12:R3-1:R2$$$V2.0	98%	–	–
PEPTIDE1{F.C.K.W.A.F.K.W.C.K.K.[am]}|CHEM1{[staple1]}$PEPTIDE1,CHEM1,2:R3-1:R1|PEPTIDE1,CHEM1,9:R3-1:R2$$$V2.0	98%	–	–
H-NLFRKLCHRLFRRCFGYTLR-NH2 (cysteine pairing not given here)	–	90%	isolated yield [2]: 5%; isolated mass [2]: 35 mg
PEPTIDE1{F.C.K.W.A.F.K.W.C.K.K.[am]}|CHEM1{[stp8a]}$PEPTIDE1,CHEM1,2:R3-1:R1|PEPTIDE1,CHEM1,9:R3-1:R2$$$V2.0	–	–	final LC-MS purity (cyclisation step): 88%
PEPTIDE1{R.F.R.R.L.C.K.K.W.R.K.R.C.K.K.I.[am]}|CHEM1{[staple1]}$PEPTIDE1,CHEM1,6:R3-1:R1|PEPTIDE1,CHEM1,13:R3-1:R2$$$V2.0	99%	–	–
PEPTIDE1{K.W.V.Q.N.Y.C.K.H.L.G.R.K.C.H.T.L.K.T.[am]}$$$$V2.0	–	99%	isolated yield [2]: 2%; isolated mass [2]: 14 mg
PEPTIDE1{R.F.R.R.L.C.K.K.W.R.K.R.C.K.K.I.[am]}$$$$V2.0	–	69%	isolated yield [2]: 5%; isolated mass [2]: 30 mg
PEPTIDE1{[C8].G.C.L.K.F.I.K.K.C.L.[am]}|CHEM1{[staple1]}$PEPTIDE1,CHEM1,3:R3-1:R1|PEPTIDE1,CHEM1,10:R3-1:R2$$$V2.0	92%	–	–
PEPTIDE1{F.A.K.W.A.F.K.W.L.K.K.[am]}$$$$V2.0	–	97%	isolated yield [3]: 36%; isolated mass [3]: 72.4 mg
PEPTIDE1{F.A.K.C.A.F.K.W.L.K.C.[am]}|CHEM1{[staple8]}$PEPTIDE1,CHEM1,4:R3-1:R1|PEPTIDE1,CHEM1,11:R3-1:R2$$$V2.0	98%	–	–
PEPTIDE1{K.W.V.Q.N.Y.C.K.H.L.G.R.K.C.H.T.L.K.T.[am]}|CHEM1{[staple1]}$PEPTIDE1,CHEM1,7:R3-1:R1|PEPTIDE1,CHEM1,14:R3-1:R2$$$V2.0	82%	–	–
Ac-TLKQFCKGVGKWCVK-NH2 (cysteine pairing not given here)	–	84%	isolated yield [2]: 13%; isolated mass [2]: 57 mg
PEPTIDE1{F.C.K.W.A.F.K.W.C.K.K.[am]}|CHEM1{[staple8]}$PEPTIDE1,CHEM1,2:R3-1:R1|PEPTIDE1,CHEM1,9:R3-1:R2$$$V2.0	99.5%	–	–
PEPTIDE1{K.W.V.Q.N.Y.M.K.H.L.G.R.K.A.H.T.L.K.T.[am]}$$$$V2.0	–	96%	isolated yield [3]: 11%; isolated mass [3]: 26 mg
PEPTIDE1{F.C.K.W.A.F.K.W.C.K.K.[am]}|CHEM1{[stp12]}$PEPTIDE1,CHEM1,2:R3-1:R1|PEPTIDE1,CHEM1,9:R3-1:R2$$$V2.0	–	–	final LC-MS purity (cyclisation step): 95%
PEPTIDE1{K.F.A.K.C.A.F.K.W.L.K.C.[am]}|CHEM1{[staple8]}$PEPTIDE1,CHEM1,5:R3-1:R1|PEPTIDE1,CHEM1,12:R3-1:R2$$$V2.0	96%	–	–
